Results reported in patent US11147275B2, “Substituted trifluoromethyloxadiazoles for combating phytopathogenic fungi” (BASF SE, priority 2017, dated 2021).
Some of these results come from one statement about several compounds together.

How the values were obtained:
Format in all cases: in vivo
Phakopsora pachyrhizi [1] = assay: Protective control of soy bean rust on soy beans (glass house trial); settings: soy bean seedlings sprayed 2 days before inoculation (protective)
Puccinia recondita [2] = assay: Preventative control of brown rust on wheat (glass house trial); settings: 63 ppm, wheat seedlings sprayed one day before inoculation (preventative)
Puccinia recondita [3] = assay: Curative control of brown rust on wheat (glass house trial); settings: 63 ppm, wheat seedlings sprayed after inoculation (curative); untreated plants 90% diseased leaf area
Phakopsora pachyrhizi [4] = assay: Curative control of soy bean rust on soy beans (glass house trial); settings: soy bean seedlings sprayed after inoculation (curative), untreated plants 100% diseased leaf area
[5] = 63 ppm, untreated plants 80% diseased leaf area
[6] = untreated plants 80% diseased leaf area
[7] = 16 ppm, untreated plants 100% diseased leaf area
[8] = untreated plants 90% diseased leaf area
[9] = 16 ppm, untreated plants 80% diseased leaf area

Compound	diseased leaf area (Phakopsora pachyrhizi [1]; [5])	diseased leaf area (Puccinia recondita [2]; [6])	diseased leaf area (Puccinia recondita [3])	diseased leaf area (Phakopsora pachyrhizi [1]; [7])	diseased leaf area (Puccinia recondita [2]; [8])	diseased leaf area (Phakopsora pachyrhizi [4]; 16 ppm)	diseased leaf area (Phakopsora pachyrhizi [1]; [9])	diseased leaf area (Phakopsora pachyrhizi [4]; 63 ppm)
CS(=O)(=O)N1CC1c1ccc(-c2noc(C(F)(F)F)n2)cc1 (stereo not drawn) [Ex-2]	at most 17%	at most 17%	–	–	–	–	–	–
CCNC(=O)N1CC(c2ccc(-c3noc(C(F)(F)F)n3)cc2)C1 [Ex-21]	–	–	at most 8%	at most 8%	at most 12%	at most 18%	–	–
CC(=O)N1CC(c2ccc(-c3noc(C(F)(F)F)n3)cc2)C1 [Ex-30, 1-[3-[4-[5-(trifluoromethyl)-1,2,4-oxadiazol-3-yl]phenyl]azetidin-1-yl]ethenone]	–	–	at most 8%	at most 8%	at most 12%	at most 18%	–	–
CC(C)S(=O)(=O)N1CC(c2ccc(-c3noc(C(F)(F)F)n3)cc2)C1 [Ex-18]	–	–	at most 8%	at most 8%	at most 12%	at most 18%	–	–
CC(C)(C)[S+]([O-])N1CC(c2ccc(-c3noc(C(F)(F)F)n3)cc2)C1 (stereo not drawn) [Ex-15]	–	–	at most 8%	at most 8%	–	–	–	–
CCS(=O)(=O)N1CC(c2ccc(-c3noc(C(F)(F)F)n3)cc2)C1 [Ex-17]	–	–	at most 8%	at most 8%	at most 12%	at most 18%	–	–
CCC(=O)N1CC(c2ccc(-c3noc(C(F)(F)F)n3)cc2)C1 [Ex-26]	–	–	at most 8%	at most 8%	at most 12%	at most 18%	–	–
CC(C)(C)NC(=O)N1CC(c2ccc(-c3noc(C(F)(F)F)n3)cc2)C1 [Ex-23]	–	–	at most 8%	at most 8%	at most 12%	–	–	–
O=S(=O)(C1CC1)N1CC1c1ccc(-c2noc(C(F)(F)F)n2)cc1 (stereo not drawn) [Ex-4, 3-[4-(1-cyclopropylsulfonylaziridin-2-yl)phenyl]-5-(trifluoromethyl)-1,2,4-oxadiazole]	–	at most 17%	–	–	–	–	–	–
CC(C)C(=O)N1CC1c1ccc(-c2noc(C(F)(F)F)n2)cc1 (stereo not drawn) [Ex-14]	–	–	–	–	–	–	at most 9%	at most 4%
CC(C)C(=O)N1CC(c2ccc(-c3noc(C(F)(F)F)n3)cc2)C1 [Ex-27]	–	–	at most 8%	at most 8%	at most 12%	at most 18%	–	–
O=S(=O)(C1CC1)N1CC(c2ccc(-c3noc(C(F)(F)F)n3)cc2)C1 [Ex-19]	–	–	at most 8%	at most 8%	at most 12%	–	–	–
CC(C)S(=O)(=O)N1CC1c1ccc(-c2noc(C(F)(F)F)n2)cc1 (stereo not drawn) [Ex-5]	at most 17%	at most 17%	–	–	–	–	–	–
CCC(=O)N1CC1c1ccc(-c2noc(C(F)(F)F)n2)cc1 (stereo not drawn) [Ex-11]	–	–	–	–	–	at most 18%	at most 9%	at most 4%
CC(C)(C)C(=O)N1CC(c2ccc(-c3noc(C(F)(F)F)n3)cc2)C1 [Ex-28]	–	–	at most 8%	at most 8%	at most 12%	at most 18%	–	–
CC(C)(C)S(=O)(=O)N1CC(c2ccc(-c3noc(C(F)(F)F)n3)cc2)C1 [Ex-20]	at most 17%	at most 17%	–	–	–	–	–	at most 4%
CS(=O)(=O)N1CC(c2ccc(-c3noc(C(F)(F)F)n3)cc2)C1 [Ex-16]	–	–	–	at most 8%	at most 12%	at most 18%	–	–
O=C(C1CC1)N1CC(c2ccc(-c3noc(C(F)(F)F)n3)cc2)C1 [Ex-29]	–	–	at most 8%	at most 8%	at most 12%	at most 18%	–	–
CCS(=O)(=O)N1CC1c1ccc(-c2noc(C(F)(F)F)n2)cc1 (stereo not drawn) [Ex-3]	at most 17%	–	–	–	–	–	–	–
CNC(=O)N1CC1c1ccc(-c2noc(C(F)(F)F)n2)cc1 (stereo not drawn) [Ex-13, N-methyl-2-[4-[5-(trifluoromethyl)-1,2,4-oxadiazol-3-yl]phenyl]aziridine-1-carboxamide]	–	–	–	–	–	at most 18%	–	–
CC(=O)N1CCC1c1ccc(-c2noc(C(F)(F)F)n2)cc1 (stereo not drawn) [Ex-31, 1-[2-[4-[5-(trifluoromethyl)-1,2,4-oxadiazol-3-yl]phenyl]azetidin-1-yl]ethenone]	–	–	at most 8%	at most 8%	–	at most 18%	–	–
O=C(C1CC1)N1CC1c1ccc(-c2noc(C(F)(F)F)n2)cc1 (stereo not drawn) [Ex-12]	–	–	–	–	–	–	at most 9%	at most 4%
CC(C)NC(=O)N1CC(c2ccc(-c3noc(C(F)(F)F)n3)cc2)C1 [Ex-22]	–	–	at most 8%	at most 8%	–	at most 18%	–	–
